# In the supplement of paper PMC5662767:
# Counter-ions that a name gives are not always drawn. The list shows a part of the results. Part of the spread comes from offsets between plates or batches.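 The clonal Drosophila S2 line carries Smoothened with a circularly permuted GFP inserted in its cytoplasmic tail, which fluoresces once Hh-driven phosphorylation opens an inhibitory loop. Per-cell fluorescence was read by flow cytometry, scaled to Hh-stimulated untreated cells. Hits were groups of inhibitors sharing pathway targets that shifted fluorescence consistently, not single compounds.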
# Tested on: Drosophila S2 cl14 SmoIP sensor cells
# Assay: normalized SmoIP GFP fluorescence (untreated unstimulated = 0%, untreated Hh-stimulated = 100%); higher = more Smo activation sensor fluorescence
# Conditions: stimulation: Hh conditioned medium (+Hh); compound concentration: 15 uM; 24 h
row,Structure (SMILES),normalized SmoIP GFP fluorescence [%]
1,CNCc1cc(-c2ccccc2F)n(S(=O)(=O)c2cccnc2)c1,169
2,CCOc1nc2cccc(C(=O)O)c2n1Cc1ccc(-c2ccccc2-c2noc(=O)[nH]2)cc1 [azilsartan-tak-536],120
3,CN1CCc2c(c3ccccc3n2Cc2ccc(C(=O)NO)cc2)C1 [tubastatin-a-hcl],133
4,COc1c(C)c2c(c(O)c1C/C=C(\C)CCC(=O)OCCN1CCOCC1)C(=O)OC2 [Mycophenolate-mofetil-(CellCept)],116
5,CC(=O)Nc1nc(C)c(-c2ccc(Cl)c(S(=O)(=O)NCCO)c2)s1,225
6,COc1cc2ncnc(Nc3ccc(O)c(Br)c3)c2cc1OC,119
7,NC(=O)c1cn(Cc2c(F)cccc2F)nn1 [Rufinamide],143
8,Oc1ccc(Nc2nc(-c3ccc(Cl)cc3)cs2)cc1,52.1
9,CN1CCN(C(c2ccccc2)c2ccccc2)CC1 [cyclizine-2hcl],125
10,CC(C)(C)c1cc(C(C)(C)C)c(NC(=O)c2c[nH]c3ccccc3c2=O)cc1O,122
11,CCc1c(C(=O)NCCc2ccc(N3CCCCC3)cc2)[nH]c2ccc(Cl)cc12,152
12,Cc1c(OCC(F)(F)F)ccnc1C[S+]([O-])c1nc2ccccc2[nH]1 (stereo not drawn) [Lansoprazole],133
13,CNCCc1ccccn1 [betahistine-dihydrochloride],116
14,C[C@]12CCC3=C4CCC(=O)C=C4CC[C@H]3[C@@H]1CC[C@@]2(O)CC#N [Dienogest],158
15,COc1cc(OC)c(/C=C/S(=O)(=O)Cc2ccc(OC)c(NCC(=O)O)c2)c(OC)c1,71.1
16,C[C@@H](O[C@H]1OCCN(Cc2n[nH]c(=O)[nH]2)[C@H]1c1ccc(F)cc1)c1cc(C(F)(F)F)cc(C(F)(F)F)c1 [Aprepitant],136
17,Cc1ccc(C(=O)c2cc(O)c(O)c([N+](=O)[O-])c2)cc1 [tolcapone],154
18,O=C1CCC(N2C(=O)c3ccccc3C2=O)C(=O)N1 (stereo not drawn) [Thalidomide],145
19,COc1cc2ncnc(Nc3ccc(Cl)cc3F)c2cc1OC,141
20,CNCc1ccc(-c2[nH]c3cc(F)cc4c3c2CCNC4=O)cc1,218

row,Structure (SMILES),normalized SmoIP GFP fluorescence [%]
1,C[C@H](NCc1ccc(OCc2cccc(F)c2)cc1)C(N)=O [Safinamide-mesilate],142
2,Cc1ccc2nc(NCCN)c3ncc(C)n3c2c1,136
3,COc1cc2c(cc1Cc1cccc(Cl)c1F)c(=O)c(C(=O)O)cn2[C@H](CO)C(C)C [Elvitegravir],195
4,NC(=O)c1ncn([C@@H]2O[C@H](CO)[C@@H](O)[C@H]2O)c1N [Acadesine],113
5,Cc1cc2c(F)c(Oc3ncnn4cc(OC[C@@H](C)OC(=O)[C@H](C)N)c(C)c34)ccc2[nH]1 [Brivanib-alaninate],158
6,Nc1nc(=O)n([C@@H]2CS[C@H](CO)O2)cc1F [Emtricitabine],128
7,COc1cc2c(cc1OC)[C@@H]1Cc3ccc(OC)c(OC)c3CN1CC2 [rotundine],217
8,Cc1cccc(Nc2ccccc2C(=O)O)c1C [mefenamic-acid],117
9,CC(C)(C)NS(=O)(=O)c1cncc(-c2cc(F)c3nc(N)nn3c2)c1,108
10,COc1ccc2c(c1)C(=O)N(CCc1ccc(S(=O)(=O)NC(=O)NC3CCCCC3)cc1)C(=O)C2(C)C [gliquidone],112
11,COC1CCN(C(=O)c2cc(Cc3n[nH]c(=O)c4ccccc34)ccc2F)CC1,118
12,Nc1ccn([C@H]2CC[C@@H](CO)O2)c(=O)n1 [Zalcitabine],168
13,Cc1ccccc1-n1c(Cn2nc(-c3cccc(O)c3)c3c(N)ncnc32)nc2cccc(C)c2c1=O,119
14,CCCSc1nc(N[C@@H]2C[C@H]2c2ccc(F)c(F)c2)c2nnn([C@@H]3C[C@H](OCCO)[C@@H](O)[C@H]3O)c2n1 [ticagrelor],134
15,COc1ccc2c(c1)c(CC(=O)N1CCOCC1)c(C)n2C(=O)c1ccc(Cl)cc1,130
16,CC1=C(/C=C/C(C)=C/C=C/C(C)=C\C(=O)O)C(C)(C)CCC1 [Isotretinoin],119
17,CC(C)NCC(O)c1ccc(O)c(O)c1 (stereo not drawn) [Isoprenaline-hydrochloride],134
18,CN(C)Cc1ccc(-c2nc3cccc4c3n2CCNC4=O)cc1,170
19,CC(C)[C@H](O)C(=O)N[C@@H](C)C(=O)N[C@@H]1C(=O)N(C)CCc2ccccc21,131

# Same assay, conditions: stimulation: mock conditioned medium (-Hh); compound concentration: 15 uM; 24 h
row,Structure (SMILES),normalized SmoIP GFP fluorescence [%]
1,CNCc1cc(-c2ccccc2F)n(S(=O)(=O)c2cccnc2)c1,27.5
2,CCOc1nc2cccc(C(=O)O)c2n1Cc1ccc(-c2ccccc2-c2noc(=O)[nH]2)cc1 [azilsartan-tak-536],-2.71
3,CN1CCc2c(c3ccccc3n2Cc2ccc(C(=O)NO)cc2)C1 [tubastatin-a-hcl],0.154
4,COc1c(C)c2c(c(O)c1C/C=C(\C)CCC(=O)OCCN1CCOCC1)C(=O)OC2 [Mycophenolate-mofetil-(CellCept)],3.72
5,CC(=O)Nc1nc(C)c(-c2ccc(Cl)c(S(=O)(=O)NCCO)c2)s1,14.5
6,COc1cc2ncnc(Nc3ccc(O)c(Br)c3)c2cc1OC,-1.12
7,NC(=O)c1cn(Cc2c(F)cccc2F)nn1 [Rufinamide],-1.88
8,Oc1ccc(Nc2nc(-c3ccc(Cl)cc3)cs2)cc1,44.8
9,CN1CCN(C(c2ccccc2)c2ccccc2)CC1 [cyclizine-2hcl],-0.151
10,CC(C)(C)c1cc(C(C)(C)C)c(NC(=O)c2c[nH]c3ccccc3c2=O)cc1O,55
11,CCc1c(C(=O)NCCc2ccc(N3CCCCC3)cc2)[nH]c2ccc(Cl)cc12,27.1
12,Cc1c(OCC(F)(F)F)ccnc1C[S+]([O-])c1nc2ccccc2[nH]1 (stereo not drawn) [Lansoprazole],8.14
13,CNCCc1ccccn1 [betahistine-dihydrochloride],-6.29
14,C[C@]12CCC3=C4CCC(=O)C=C4CC[C@H]3[C@@H]1CC[C@@]2(O)CC#N [Dienogest],3.18
15,COc1cc(OC)c(/C=C/S(=O)(=O)Cc2ccc(OC)c(NCC(=O)O)c2)c(OC)c1,20.4
16,C[C@@H](O[C@H]1OCCN(Cc2n[nH]c(=O)[nH]2)[C@H]1c1ccc(F)cc1)c1cc(C(F)(F)F)cc(C(F)(F)F)c1 [Aprepitant],60.6
17,Cc1ccc(C(=O)c2cc(O)c(O)c([N+](=O)[O-])c2)cc1 [tolcapone],10.5
18,O=C1CCC(N2C(=O)c3ccccc3C2=O)C(=O)N1 (stereo not drawn) [Thalidomide],4.58
19,COc1cc2ncnc(Nc3ccc(Cl)cc3F)c2cc1OC,41.8
20,CNCc1ccc(-c2[nH]c3cc(F)cc4c3c2CCNC4=O)cc1,75.1

row,Structure (SMILES),normalized SmoIP GFP fluorescence [%]
1,C[C@H](NCc1ccc(OCc2cccc(F)c2)cc1)C(N)=O [Safinamide-mesilate],18.6
2,Cc1ccc2nc(NCCN)c3ncc(C)n3c2c1,-10.6
3,COc1cc2c(cc1Cc1cccc(Cl)c1F)c(=O)c(C(=O)O)cn2[C@H](CO)C(C)C [Elvitegravir],27.7
4,NC(=O)c1ncn([C@@H]2O[C@H](CO)[C@@H](O)[C@H]2O)c1N [Acadesine],-17.2
5,Cc1cc2c(F)c(Oc3ncnn4cc(OC[C@@H](C)OC(=O)[C@H](C)N)c(C)c34)ccc2[nH]1 [Brivanib-alaninate],40.6
6,Nc1nc(=O)n([C@@H]2CS[C@H](CO)O2)cc1F [Emtricitabine],-11.7
7,COc1cc2c(cc1OC)[C@@H]1Cc3ccc(OC)c(OC)c3CN1CC2 [rotundine],48.4
8,Cc1cccc(Nc2ccccc2C(=O)O)c1C [mefenamic-acid],-0.889
9,CC(C)(C)NS(=O)(=O)c1cncc(-c2cc(F)c3nc(N)nn3c2)c1,-1.74
10,COc1ccc2c(c1)C(=O)N(CCc1ccc(S(=O)(=O)NC(=O)NC3CCCCC3)cc1)C(=O)C2(C)C [gliquidone],9.22
11,COC1CCN(C(=O)c2cc(Cc3n[nH]c(=O)c4ccccc34)ccc2F)CC1,-3.9
12,Nc1ccn([C@H]2CC[C@@H](CO)O2)c(=O)n1 [Zalcitabine],-6.79
13,Cc1ccccc1-n1c(Cn2nc(-c3cccc(O)c3)c3c(N)ncnc32)nc2cccc(C)c2c1=O,-3.45
14,CCCSc1nc(N[C@@H]2C[C@H]2c2ccc(F)c(F)c2)c2nnn([C@@H]3C[C@H](OCCO)[C@@H](O)[C@H]3O)c2n1 [ticagrelor],17.1
15,COc1ccc2c(c1)c(CC(=O)N1CCOCC1)c(C)n2C(=O)c1ccc(Cl)cc1,1.84
16,CC1=C(/C=C/C(C)=C/C=C/C(C)=C\C(=O)O)C(C)(C)CCC1 [Isotretinoin],13.8
17,CC(C)NCC(O)c1ccc(O)c(O)c1 (stereo not drawn) [Isoprenaline-hydrochloride],-12.6
18,CN(C)Cc1ccc(-c2nc3cccc4c3n2CCNC4=O)cc1,-4.08
19,CC(C)[C@H](O)C(=O)N[C@@H](C)C(=O)N[C@@H]1C(=O)N(C)CCc2ccccc21,11.3
